Source: PMC9726926

The chains behind the UniProt entries cited, without tags or fusion partners.
UniProt P46736: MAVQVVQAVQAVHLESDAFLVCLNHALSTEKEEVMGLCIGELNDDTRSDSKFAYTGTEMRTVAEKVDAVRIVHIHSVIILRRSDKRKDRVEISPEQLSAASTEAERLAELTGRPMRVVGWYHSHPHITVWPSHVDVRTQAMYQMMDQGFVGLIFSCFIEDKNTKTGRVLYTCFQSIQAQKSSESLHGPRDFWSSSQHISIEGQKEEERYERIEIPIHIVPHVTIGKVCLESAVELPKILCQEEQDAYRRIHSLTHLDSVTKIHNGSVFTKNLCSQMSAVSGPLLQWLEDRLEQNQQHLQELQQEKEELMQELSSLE
UniProt Q9NQS7: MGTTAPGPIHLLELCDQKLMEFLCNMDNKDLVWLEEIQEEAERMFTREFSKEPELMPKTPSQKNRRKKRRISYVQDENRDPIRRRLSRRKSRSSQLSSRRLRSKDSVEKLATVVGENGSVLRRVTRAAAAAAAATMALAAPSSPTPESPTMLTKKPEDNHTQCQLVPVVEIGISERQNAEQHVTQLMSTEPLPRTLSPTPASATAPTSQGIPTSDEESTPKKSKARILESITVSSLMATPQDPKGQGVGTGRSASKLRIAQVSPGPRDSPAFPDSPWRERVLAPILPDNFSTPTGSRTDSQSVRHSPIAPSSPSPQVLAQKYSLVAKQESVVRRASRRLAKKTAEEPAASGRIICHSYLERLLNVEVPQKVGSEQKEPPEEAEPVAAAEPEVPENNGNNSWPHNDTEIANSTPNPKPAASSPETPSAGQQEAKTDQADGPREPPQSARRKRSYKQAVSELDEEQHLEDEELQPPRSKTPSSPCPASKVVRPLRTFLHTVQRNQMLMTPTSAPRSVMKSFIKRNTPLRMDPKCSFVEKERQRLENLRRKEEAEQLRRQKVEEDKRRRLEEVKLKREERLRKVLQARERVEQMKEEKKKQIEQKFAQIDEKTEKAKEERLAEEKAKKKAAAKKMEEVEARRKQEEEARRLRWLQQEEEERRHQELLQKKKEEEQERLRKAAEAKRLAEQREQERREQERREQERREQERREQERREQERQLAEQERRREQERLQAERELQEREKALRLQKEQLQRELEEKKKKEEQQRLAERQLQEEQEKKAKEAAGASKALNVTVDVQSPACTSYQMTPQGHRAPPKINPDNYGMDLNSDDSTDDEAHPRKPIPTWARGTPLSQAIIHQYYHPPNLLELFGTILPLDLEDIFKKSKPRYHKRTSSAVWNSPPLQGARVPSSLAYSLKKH

What was measured:
[1] = molecular target: Flag-HA-Aurora B (human) (UniProt Q96GD4); assay: affinity purification with mass spectrometry; Flag-Aurora B-specific complex purified from HEK293T cells ectopically expressing Flag-Aurora B with or without His-K63-Ub; LC-MS/MS
[2] = molecular target: T1, Flag-HA-Aurora B (human), Q96GD4; assay: as above; conditions: remark: other sources report otherwise
T1 chain: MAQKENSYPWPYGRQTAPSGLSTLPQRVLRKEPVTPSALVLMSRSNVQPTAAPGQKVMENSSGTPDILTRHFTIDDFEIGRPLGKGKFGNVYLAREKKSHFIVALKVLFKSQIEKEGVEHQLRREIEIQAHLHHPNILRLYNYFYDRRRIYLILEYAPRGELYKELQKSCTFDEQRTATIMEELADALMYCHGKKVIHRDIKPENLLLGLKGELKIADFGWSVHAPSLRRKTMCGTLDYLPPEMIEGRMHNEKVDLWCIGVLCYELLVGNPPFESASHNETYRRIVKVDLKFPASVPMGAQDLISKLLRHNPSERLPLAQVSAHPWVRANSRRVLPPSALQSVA

With “BRCC36 (endogenous, HEK293T) (from UniProt P46736 1-316)” the binding [1] was “binds”.

INCENP (from UniProt Q9NQS7 1-918) was tested, and the binding [1] was “binds”.

B1: Borealin, Q53HL2 1-280 (protein)
chain: MAPRKGSSRVAKTNSLRRRKLASFLKDFDREVEIRIKQIESDRQNLLKEVDNLYNIEILRLPKALREMNWLDYFALGGNKQALEEAATADLDITEINKLTAEAIQTPLKSAKTRKVIQVDEMIVEEEEEEENERKNLQTARVKRCPPSKKRTQSIQGKGKGKRSSRANTVTPAVGRLEVSMVKPTPGLTPRFDSRVFKTPGLRTPAAGERIYNISGNGSPLADSKEIFLTVPVGGGESLRLLASDLQRHSIAQLDPEALGNIKKLSNRLAQICSSIRTHK
For B1, the binding [2] was “binds”.

No constants are given. Whether binding was seen depends on the method and setting. In cells and extracts the contact can be indirect. These calls come from enrichment with a bait or labelling near it, and not all partners need be listed. For part of these data: Tags and fused reporters may be left off the sequences shown.
